Data from publication PMC11844899.
Residue numbers refer to the chain shown, from its start. Results are given in words; binding and its absence hold for the method and conditions named. Binding seen in cells or lysates may run through a third protein. Some entries that bind do so weakly or less than the wild type. Where a sequence is shown, tags or fusion partners need not be part of it.

Amino acid sequences for entries named in this document (tags omitted).
UniProt Q13546: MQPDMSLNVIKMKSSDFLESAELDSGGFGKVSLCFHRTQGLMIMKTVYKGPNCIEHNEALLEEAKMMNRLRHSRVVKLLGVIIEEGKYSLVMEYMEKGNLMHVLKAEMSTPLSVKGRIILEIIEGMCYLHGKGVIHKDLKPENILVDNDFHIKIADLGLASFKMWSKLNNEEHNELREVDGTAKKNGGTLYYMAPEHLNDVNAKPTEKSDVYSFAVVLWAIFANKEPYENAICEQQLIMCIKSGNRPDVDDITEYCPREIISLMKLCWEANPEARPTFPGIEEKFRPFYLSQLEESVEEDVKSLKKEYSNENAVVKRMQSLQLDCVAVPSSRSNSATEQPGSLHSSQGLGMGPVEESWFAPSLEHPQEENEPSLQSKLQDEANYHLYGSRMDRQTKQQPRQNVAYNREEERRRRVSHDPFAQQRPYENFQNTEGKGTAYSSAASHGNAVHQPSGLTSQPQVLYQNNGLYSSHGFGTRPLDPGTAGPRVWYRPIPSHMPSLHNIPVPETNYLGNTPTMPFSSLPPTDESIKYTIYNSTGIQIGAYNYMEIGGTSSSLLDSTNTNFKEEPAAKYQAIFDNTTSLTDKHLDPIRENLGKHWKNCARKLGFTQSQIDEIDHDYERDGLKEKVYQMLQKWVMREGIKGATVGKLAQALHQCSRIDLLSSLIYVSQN
UniProt Q9Y572: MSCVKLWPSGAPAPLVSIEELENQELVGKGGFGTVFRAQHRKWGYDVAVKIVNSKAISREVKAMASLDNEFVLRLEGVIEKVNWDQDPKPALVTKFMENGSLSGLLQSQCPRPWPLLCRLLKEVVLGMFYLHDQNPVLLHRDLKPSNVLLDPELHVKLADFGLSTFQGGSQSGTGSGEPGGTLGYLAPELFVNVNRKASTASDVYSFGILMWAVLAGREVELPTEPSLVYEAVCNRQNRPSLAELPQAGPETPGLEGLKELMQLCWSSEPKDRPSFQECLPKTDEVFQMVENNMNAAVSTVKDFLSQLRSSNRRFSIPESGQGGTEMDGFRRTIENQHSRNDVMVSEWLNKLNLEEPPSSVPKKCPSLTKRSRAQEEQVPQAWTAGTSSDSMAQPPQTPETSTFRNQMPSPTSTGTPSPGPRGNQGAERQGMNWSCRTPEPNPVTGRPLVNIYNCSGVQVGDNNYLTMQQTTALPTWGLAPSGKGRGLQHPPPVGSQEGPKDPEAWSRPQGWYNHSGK
UniProt Q9QZL0: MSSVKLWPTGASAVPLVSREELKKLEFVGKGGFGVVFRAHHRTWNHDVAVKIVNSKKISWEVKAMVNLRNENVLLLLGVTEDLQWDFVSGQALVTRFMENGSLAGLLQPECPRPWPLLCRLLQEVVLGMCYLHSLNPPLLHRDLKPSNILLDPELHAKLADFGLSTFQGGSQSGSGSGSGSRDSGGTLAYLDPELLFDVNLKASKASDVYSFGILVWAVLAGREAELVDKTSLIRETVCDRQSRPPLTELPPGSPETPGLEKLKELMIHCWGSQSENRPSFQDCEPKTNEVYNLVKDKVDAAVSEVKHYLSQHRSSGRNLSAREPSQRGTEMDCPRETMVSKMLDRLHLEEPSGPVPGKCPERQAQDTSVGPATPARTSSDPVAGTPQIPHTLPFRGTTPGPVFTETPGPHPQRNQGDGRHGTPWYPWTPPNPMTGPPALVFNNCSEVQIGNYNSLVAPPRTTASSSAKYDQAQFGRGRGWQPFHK

Assays:
Test in all cases: co-IP
[1] = target: T1, FLAG-tagged human ZBP1 mutant RHIM B (tetra-Ala substitution of amino acids 264-267) (human) (UniProt Q9H171)
T1 sequence: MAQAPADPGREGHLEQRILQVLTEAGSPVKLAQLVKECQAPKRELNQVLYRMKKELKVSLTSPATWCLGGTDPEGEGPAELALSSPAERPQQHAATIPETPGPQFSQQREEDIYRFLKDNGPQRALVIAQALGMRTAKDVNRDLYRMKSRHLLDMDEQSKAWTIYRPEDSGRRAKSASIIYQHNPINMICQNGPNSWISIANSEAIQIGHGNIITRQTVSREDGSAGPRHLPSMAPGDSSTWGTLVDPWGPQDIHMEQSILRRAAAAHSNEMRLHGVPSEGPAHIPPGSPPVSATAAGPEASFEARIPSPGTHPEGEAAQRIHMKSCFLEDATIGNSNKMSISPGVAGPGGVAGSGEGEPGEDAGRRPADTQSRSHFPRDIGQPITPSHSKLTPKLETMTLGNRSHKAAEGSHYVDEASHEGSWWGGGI

[2] = target: T2, FLAG-tagged human ZBP1 mutant Zα1 (N46D/Y50A) (human) (UniProt Q9H171)
T2 sequence: T1 sequence with N46D, Y50A, A264V, A265Q, A266L, A267G

[3] = target: T3, Flag-mZBP1 expressed in MEFs (mouse) (UniProt Q9QY24)
T3 sequence: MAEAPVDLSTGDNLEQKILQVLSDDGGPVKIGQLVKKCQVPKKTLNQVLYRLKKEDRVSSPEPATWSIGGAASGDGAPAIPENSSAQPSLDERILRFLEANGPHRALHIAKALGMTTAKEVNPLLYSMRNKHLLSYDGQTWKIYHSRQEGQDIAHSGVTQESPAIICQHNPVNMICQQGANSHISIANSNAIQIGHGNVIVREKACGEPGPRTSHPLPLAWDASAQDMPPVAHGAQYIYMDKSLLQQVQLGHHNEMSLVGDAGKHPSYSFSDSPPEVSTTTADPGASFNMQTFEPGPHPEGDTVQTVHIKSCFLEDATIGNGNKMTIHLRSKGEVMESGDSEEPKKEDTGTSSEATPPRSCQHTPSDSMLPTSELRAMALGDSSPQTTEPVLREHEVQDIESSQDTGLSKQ

[4] = target: T4, FLAG-tagged human ZBP1 (Flag-hZBP1) (human) (UniProt Q9H171)
T4 sequence: T1 sequence with A264V, A265Q, A266L, A267G

| Substance | binding [1] | binding [2] | binding [3] | binding [4] |
| --- | --- | --- | --- | --- |
| RIPK1 (endogenous, human cells) (from UniProt Q13546 1-671) | binds | binds | – | – |
| RIPK3 (endogenous, human cells) (from UniProt Q9Y572 1-518) | binds | binds | – | – |
| RIPK3 (endogenous, mouse cells) (from UniProt Q9QZL0 1-486) | – | – | binds | – |
| mouse RIPK3 (mRIPK3) reconstituted in HT29-hZBP1 (RIPK3 KO) cells (from UniProt Q9QZL0 1-486) | – | – | – | binds |
